Laboratory results: publication PMC7884425
No constants are given. Whether binding was seen depends on the method and setting. A result given as binding can be weak or reduced; the word gives no strength. Sequences can lack the tags named with a protein.

Amino acid sequences for entries named in this document (tags omitted). A change or cut given only in a name is not applied to a line headed by its entry.
UniProt P09874: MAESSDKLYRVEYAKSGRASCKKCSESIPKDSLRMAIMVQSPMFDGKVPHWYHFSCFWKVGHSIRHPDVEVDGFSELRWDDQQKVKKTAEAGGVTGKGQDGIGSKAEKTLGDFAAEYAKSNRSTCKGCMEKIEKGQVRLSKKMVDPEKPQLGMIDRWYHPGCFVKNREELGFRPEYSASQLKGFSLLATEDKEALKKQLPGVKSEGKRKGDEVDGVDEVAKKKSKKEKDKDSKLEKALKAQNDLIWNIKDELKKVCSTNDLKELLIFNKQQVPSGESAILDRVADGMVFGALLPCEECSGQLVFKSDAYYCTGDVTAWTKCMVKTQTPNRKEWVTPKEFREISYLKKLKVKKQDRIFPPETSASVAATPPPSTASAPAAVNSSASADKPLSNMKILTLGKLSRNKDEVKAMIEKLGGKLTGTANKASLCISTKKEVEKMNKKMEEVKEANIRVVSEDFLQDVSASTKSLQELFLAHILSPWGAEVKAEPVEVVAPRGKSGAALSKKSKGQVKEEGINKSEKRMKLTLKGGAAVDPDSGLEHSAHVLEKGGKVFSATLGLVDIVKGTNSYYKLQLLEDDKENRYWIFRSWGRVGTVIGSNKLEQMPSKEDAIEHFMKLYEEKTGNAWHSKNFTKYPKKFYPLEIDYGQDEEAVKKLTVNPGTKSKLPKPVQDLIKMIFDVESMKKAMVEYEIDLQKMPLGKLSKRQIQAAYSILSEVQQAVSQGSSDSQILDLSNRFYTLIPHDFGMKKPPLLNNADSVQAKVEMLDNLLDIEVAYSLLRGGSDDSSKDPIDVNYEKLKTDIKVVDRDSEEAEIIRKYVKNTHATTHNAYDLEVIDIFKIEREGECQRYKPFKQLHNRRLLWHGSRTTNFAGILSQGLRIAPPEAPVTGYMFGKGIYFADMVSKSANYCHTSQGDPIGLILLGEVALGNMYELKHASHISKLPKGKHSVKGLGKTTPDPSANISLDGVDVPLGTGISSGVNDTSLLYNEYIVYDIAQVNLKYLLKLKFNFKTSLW

Target: PARP1 D756A (human) (UniProt P09874)
Assay: ITC; PARP1 D756A with HPF1; data in Supplementary Fig. 2 (ITC raw data); construct and conditions not told; both purified

B1: human HPF1 (histone PARylation factor 1), wild-type (protein, UniProt Q9NWY4 1-346)
chain: MVGGGGKRRPGGEGPQCEKTTDVKKSKFCEADVSSDLRKEVENHYKLSLPEDFYHFWKFCEELDPEKPSDSLSASLGLQLVGPYDILAGKHKTKKKSTGLNFNLHWRFYYDPPEFQTIIIGDNKTQYHMGYFRDSPDEFPVYVGINEAKKNCIIVPNGDNVFAAVKLFLTKKLREITDKKKINLLKNIDEKLTEAARELGYSLEQRTVKMKQRDKKVVTKTFHGAGLVVPVDKNDVGYRELPETDADLKRICKTIVEAASDEERLKAFAPIQEMMTFVQFANDECDYGMGLELGMDLFCYGSHYFHKVAGQLLPLAYNLLKRNLFAEIIEEHLANRSQENIDQLAA
Which binding does the source give for B1 here?
The binding was “binds”.
